No constants are given. Whether binding was seen depends on the method and setting. Binding can be weak; no strength is given. Tags and fused reporters may be left off the sequences shown.

The target in the assay is T1, MBP-GW2 (maltose-binding protein fused with grain width 2) (rice (Oryza sativa L.)) (UniProt B9F4Q9).
T1 sequence: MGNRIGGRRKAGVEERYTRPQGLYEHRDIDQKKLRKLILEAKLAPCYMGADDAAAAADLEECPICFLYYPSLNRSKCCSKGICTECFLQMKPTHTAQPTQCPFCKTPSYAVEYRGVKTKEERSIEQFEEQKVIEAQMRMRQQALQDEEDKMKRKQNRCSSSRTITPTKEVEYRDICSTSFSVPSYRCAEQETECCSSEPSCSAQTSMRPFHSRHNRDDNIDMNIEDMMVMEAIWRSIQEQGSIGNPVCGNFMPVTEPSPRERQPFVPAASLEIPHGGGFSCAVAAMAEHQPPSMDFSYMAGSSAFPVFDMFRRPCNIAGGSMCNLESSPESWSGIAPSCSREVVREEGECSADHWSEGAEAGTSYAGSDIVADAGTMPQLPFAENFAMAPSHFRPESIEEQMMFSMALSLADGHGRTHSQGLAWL
As to the kind of experiment: pull-down; 2 µg MBP-GW2 mixed with 2 µg GST fusion protein; 50 mM Tris-HCl pH 7.5, 100 mM NaCl, 1% Triton X-100, 0.2% glycerol, 0.5 mM 2-mercaptoethanol; 25 °C, 2 h; captured on amylose resin, washed five times; GST fusions detected by anti-GST immunoblot; both purified. (In general: A western blot detects proteins with antibodies after separation by electrophoresis.)
Regarding “GST-CHT14 (glutathione S-transferase fused with chitinase 14) (rice (Oryza sativa L.)) (enzyme)”, the binding entry was “binds”. The value for “GST-GAPDH (glutathione S-transferase fused with glyceraldehyde 3-phosphate dehydrogenase) (rice (Oryza sativa L.)) (enzyme)” was “no binding (tested: 2 µg of MBP-GW2 with 2 µg of GST-GAPDH)”; that for “GST-PGK (glutathione S-transferase fused with phosphoglycerate kinase) (rice (Oryza sativa L.)) (enzyme)” was “binds”.

(Values after paper PMC6203701.)
